Test [1] has as its target µ opioid receptor fused to sYFP2 (MOR-sYFP2) (rat) (UniProt P33535). In words: FRET or BRET. (In general: BRET reads energy transfer from a luciferase to a nearby fluorophore.)
Another test addresses MOR-H297A mutant (rat) (UniProt P33535). In words: FRET or BRET.

By UniProt entry, the sequences of proteins in these tests, tags left out. Where a name states a change or a piece, a line headed by the entry shows the natural chain unless it says otherwise.
UniProt P25098, whole entry: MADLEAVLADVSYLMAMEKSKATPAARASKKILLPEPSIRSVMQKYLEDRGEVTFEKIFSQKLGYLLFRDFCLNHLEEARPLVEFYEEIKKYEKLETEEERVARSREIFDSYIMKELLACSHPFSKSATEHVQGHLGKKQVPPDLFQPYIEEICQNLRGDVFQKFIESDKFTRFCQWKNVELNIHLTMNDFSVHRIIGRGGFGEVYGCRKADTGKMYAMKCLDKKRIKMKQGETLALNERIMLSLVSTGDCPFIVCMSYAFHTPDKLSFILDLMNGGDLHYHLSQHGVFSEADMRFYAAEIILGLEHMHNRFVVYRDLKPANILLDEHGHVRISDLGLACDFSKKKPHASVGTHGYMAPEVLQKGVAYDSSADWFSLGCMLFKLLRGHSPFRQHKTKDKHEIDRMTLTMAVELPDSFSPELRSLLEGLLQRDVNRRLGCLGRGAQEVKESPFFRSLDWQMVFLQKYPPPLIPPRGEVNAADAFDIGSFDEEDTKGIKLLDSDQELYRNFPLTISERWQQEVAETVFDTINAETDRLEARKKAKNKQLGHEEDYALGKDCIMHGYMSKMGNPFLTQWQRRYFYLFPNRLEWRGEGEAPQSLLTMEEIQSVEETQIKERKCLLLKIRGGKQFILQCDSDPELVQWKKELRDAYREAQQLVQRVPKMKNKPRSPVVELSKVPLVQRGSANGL

These are yes or no findings as the source states them, for the method shown. Binding seen in cells or lysates may run through a third protein. Some entries that bind do so weakly or less than the wild type.

In the case of “GRK2-mTur2 (from UniProt P25098 1-689) (enzyme)”, the binding result (in test [1]; with MOR-H297A mutant (rat)) was “binds” throughout.

Values taken from publication doi:10.1101/2021.12.02.470941.
